Results are given in words; binding and its absence hold for the method and conditions named. Binding seen in cells or lysates may run through a third protein. Here binding means that the protein was enriched with, or labelled near, the bait; the list need not be complete. Tags and fused reporters may be left off the sequences shown.
Molecular target: T1, FLAG-tagged hPPIP5K2 (human) (UniProt O43314)
T1 sequence: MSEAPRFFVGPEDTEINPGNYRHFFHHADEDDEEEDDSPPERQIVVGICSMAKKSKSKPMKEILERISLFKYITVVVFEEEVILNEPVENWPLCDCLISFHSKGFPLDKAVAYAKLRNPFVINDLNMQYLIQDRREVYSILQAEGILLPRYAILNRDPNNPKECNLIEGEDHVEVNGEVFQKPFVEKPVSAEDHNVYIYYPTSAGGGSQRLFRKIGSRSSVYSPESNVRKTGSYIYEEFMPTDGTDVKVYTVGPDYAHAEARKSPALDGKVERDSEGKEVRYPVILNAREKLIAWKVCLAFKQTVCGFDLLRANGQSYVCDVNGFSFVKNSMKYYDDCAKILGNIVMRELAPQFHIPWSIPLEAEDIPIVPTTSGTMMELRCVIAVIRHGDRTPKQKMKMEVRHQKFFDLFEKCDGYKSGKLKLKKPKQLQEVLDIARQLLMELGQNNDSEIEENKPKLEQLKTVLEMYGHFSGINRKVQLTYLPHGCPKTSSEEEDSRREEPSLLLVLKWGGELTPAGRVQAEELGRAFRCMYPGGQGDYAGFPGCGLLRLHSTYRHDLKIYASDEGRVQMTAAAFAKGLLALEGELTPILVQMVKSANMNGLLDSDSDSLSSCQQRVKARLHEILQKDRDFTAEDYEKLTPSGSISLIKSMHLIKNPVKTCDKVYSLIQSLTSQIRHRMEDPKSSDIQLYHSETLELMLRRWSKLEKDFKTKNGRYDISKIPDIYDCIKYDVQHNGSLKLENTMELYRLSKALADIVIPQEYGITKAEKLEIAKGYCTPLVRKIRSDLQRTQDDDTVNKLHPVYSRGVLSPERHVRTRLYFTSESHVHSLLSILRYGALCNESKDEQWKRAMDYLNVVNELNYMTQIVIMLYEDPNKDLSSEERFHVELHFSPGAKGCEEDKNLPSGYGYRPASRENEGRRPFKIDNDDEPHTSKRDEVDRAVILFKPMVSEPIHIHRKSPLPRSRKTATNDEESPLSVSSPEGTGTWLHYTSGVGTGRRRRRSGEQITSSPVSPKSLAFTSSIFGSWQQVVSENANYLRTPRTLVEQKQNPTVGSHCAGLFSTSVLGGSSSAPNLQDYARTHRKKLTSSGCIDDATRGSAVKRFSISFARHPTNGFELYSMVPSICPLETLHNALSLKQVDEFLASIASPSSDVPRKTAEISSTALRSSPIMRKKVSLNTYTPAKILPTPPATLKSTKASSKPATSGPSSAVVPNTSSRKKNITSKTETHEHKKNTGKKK
Test: affinity purification with mass spectrometry; lysates of stable HEK293T lines (50 mM HEPES pH 7.8, 300 mM NaCl, 1.0% NP-40) incubated 90 min at 0-4 °C with ANTI-FLAG M2 affinity gel, washed with TBS, eluted with 0.1 M glycine-HCl pH 3.5, SDS-PAGE lanes cut in 24 sections, nanoLC-ESI-MS/MS; subtractive against the FLAG-β-galactosidase control

Sequences of proteins named here, by UniProt entry; tags and fusion partners are left off.
UniProt O00410: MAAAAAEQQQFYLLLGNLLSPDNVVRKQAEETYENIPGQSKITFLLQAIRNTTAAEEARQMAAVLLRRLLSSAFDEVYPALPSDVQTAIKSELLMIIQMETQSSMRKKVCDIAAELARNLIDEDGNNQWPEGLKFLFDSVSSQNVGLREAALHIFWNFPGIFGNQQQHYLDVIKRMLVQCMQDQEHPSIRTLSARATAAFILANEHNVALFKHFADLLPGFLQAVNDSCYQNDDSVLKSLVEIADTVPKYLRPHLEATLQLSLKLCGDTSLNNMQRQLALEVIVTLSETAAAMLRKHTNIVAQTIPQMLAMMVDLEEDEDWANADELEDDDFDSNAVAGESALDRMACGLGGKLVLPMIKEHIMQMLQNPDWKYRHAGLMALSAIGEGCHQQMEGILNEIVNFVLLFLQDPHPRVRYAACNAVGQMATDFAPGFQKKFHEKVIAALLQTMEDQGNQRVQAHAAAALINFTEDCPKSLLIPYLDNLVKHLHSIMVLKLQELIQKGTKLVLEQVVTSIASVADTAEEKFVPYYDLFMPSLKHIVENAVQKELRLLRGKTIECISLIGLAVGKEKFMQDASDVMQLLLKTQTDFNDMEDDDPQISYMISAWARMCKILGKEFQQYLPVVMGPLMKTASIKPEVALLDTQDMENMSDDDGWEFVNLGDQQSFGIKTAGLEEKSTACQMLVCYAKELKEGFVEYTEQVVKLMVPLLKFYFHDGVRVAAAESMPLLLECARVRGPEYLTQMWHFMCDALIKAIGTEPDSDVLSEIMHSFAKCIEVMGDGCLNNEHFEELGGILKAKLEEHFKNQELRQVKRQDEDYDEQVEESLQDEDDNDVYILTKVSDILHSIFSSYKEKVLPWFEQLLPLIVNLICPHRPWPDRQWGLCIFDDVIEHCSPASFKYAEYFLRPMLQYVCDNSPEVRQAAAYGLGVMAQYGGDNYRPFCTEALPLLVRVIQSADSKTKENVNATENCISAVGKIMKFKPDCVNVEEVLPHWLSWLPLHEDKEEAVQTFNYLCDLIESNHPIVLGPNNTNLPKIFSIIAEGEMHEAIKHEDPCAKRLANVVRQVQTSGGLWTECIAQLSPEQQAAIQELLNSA
UniProt O15397: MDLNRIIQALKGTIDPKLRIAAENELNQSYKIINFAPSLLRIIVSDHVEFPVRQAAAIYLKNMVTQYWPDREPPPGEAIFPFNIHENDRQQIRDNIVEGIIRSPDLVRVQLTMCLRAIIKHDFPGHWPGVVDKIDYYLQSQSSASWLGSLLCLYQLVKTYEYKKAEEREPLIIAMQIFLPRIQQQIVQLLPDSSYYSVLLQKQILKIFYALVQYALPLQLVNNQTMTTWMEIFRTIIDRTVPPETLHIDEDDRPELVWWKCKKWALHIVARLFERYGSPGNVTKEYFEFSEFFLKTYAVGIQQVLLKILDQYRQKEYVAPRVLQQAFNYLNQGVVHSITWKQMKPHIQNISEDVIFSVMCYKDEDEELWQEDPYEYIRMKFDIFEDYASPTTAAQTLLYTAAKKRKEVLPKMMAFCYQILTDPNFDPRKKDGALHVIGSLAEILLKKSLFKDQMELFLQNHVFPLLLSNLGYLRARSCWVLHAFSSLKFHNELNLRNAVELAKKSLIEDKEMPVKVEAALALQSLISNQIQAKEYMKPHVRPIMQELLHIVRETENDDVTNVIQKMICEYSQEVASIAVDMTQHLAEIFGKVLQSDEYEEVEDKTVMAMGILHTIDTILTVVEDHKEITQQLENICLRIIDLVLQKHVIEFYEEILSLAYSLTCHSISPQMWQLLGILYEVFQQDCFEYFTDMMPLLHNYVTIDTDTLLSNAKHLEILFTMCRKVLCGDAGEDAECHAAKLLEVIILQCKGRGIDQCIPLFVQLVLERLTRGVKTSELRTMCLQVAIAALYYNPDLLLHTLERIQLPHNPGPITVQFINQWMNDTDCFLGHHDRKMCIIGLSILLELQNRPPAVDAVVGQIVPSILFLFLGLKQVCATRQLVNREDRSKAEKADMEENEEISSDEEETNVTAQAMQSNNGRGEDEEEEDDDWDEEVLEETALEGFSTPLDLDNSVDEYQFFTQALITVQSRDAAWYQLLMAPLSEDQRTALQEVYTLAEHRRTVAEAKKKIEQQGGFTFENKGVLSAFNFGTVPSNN

Row | binding | Substance
1 | binds | Importin-5 (from UniProt O00410 1-1097)
2 | binds | Importin-8 (from UniProt O15397 1-1037)
